This is an account of results in patent US4551273A, “Analgesic peptide and process for the preparation thereof” (Eisai Co., Ltd., priority 1983, dated 1985).

Structures are written as SMILES.

Test [1] concerns guinea pig longitudinal muscle of ileum. The test can be described thus: Assay with guinea pig longitudinal muscle of ileum (inhibition of electrically stimulated contraction). The format is tissue-based. As to conditions: Cavia porcellus, concentration required to decrease electrically stimulated contraction to 50%, read-out: IC50, Method (A). Here is the method:
(A) Assay with guinea pig longitudinal muscle of ileum
This assay was carried out according to the method reported by H. W. Kosterlitz et al. A mature guinea pig was sacrificed by cutting its jugular and subjected to an abdominal operation to take out its ileum as a piece of 40 to 50 cm in length from a region 15 to 20 cm apart from the ileocecal region. Then it was immediately introduced into Ringer's solution and cut into 10 cm portions. The longitudinal muscle was peeled off from each piece by using a scalpel and an applicator, wound with a string and suspended in an isothermal glass cell of 6 ml in volume. Subsequently it was stimulated electrically (0.1 Hz, 0.5 ms, 80-90 V) with platinum electrodes fitted at the upper and lower sides of the cell to record the resulting contractions through a transducer.
H. W. Kosterlitz, A. A. Waterfield: Annu. Rev. Pharmacol., 15, 29 (1975).

For the next test, the system named is mouse vas deferens. The test can be described thus: Assay with mouse vas deferens (inhibition of electrically stimulated contraction). Further details: species or system isolated tissue. Particulars: concentration required to decrease electrically stimulated contraction to 50%, read-out: IC50, Method (B). The protocol:
(B) Assay with mouse vas deferens
This assay was carried out according to the method reported by Hughes et al. A mature male mouse was decapitated and phlebotomized. Then it was immediately subjected to an abdominal operation to take out its right and left vas deferens. Sperm clogged in the ducts was forced out with a pincette in Ringer's solution and both ends of the two ducts were united with a string to form a ring. Then it was stimulated electrically (0.1 Hz, 1 ms, 90 V) in the same manner as described in (A).
Hughes H. W., Kosterlitz H. W., Leslie F. M.: Br. J. Pharmacol., 53, 371 (1975).

What is called IC50 is the concentration needed to halve the response being measured. For the compound `CN1CC[C@]23c4c5ccc(O)c4O[C@H]2[C@@H](O)C=C[C@H]3[C@H]1C5` [Morphine], the IC50 in test [1] is 94 ± 36 nM; with mouse vas deferens, 1070 ± 489 nM.
